Data as given in PubChem BioAssay AID504804 (Drosophila RNAi Screening Center, 2011)

- Assay: 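dsRNAs that improve Kc cell survival under doxorubicin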 (primary screen)
- Cells: Drosophila Kc cells
- Reagents: long dsRNA against Drosophila genes, 0.5 µg dsRNA per well
- Duration: 96 h (48 h knock-down, then 48 h drug)
- Conditions: doxorubicin 5 µg/ml for 48 h, added 48 h after dsRNA
- Read-out: 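Viability measured as cellular ATP by luminescence after 48 h knock-down then 48 h doxorubicin at 5 µg/ml; unnormalised plate counts for each replicate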
- Scale: raw ATP luminescence: higher = more viable cells, protection from doxorubicin
- Hit rule: 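Active when both duplicate wells lie at least 2 SD above the plate mean and protection is confirmed by rescreening and independent dsRNAs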
The screen tested about 19,000 reagents; shown is a random part of those with a known target gene and a result. Of all reagents, 47 (0.25%) are marked active. 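Signals are raw, not normalised; exact z-scores behind calls not deposited; actives needed confirmation, so some wells reaching 2 SD are inactive.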 Names joined by + are all predicted targets of the reagent.

The first 5 records, to show the layout:
Target gene | amplicon | raw ATP luminescence, replicate 1 | raw ATP luminescence, replicate 2 | call
CG12909 | DRSC06224 | 38917 | 93000 | inactive
Ace (Acetylcholine esterase) | DRSC12959 | 1.47e5 | 1.39e5 | inactive
Ace (Acetylcholine esterase) | DRSC14100 | 44370 | 21127 | inactive
OXA1L (OXA1L mitochondrial inner membrane protein) | DRSC09672 | 39773 | 38637 | inactive
mRpL32 (mitochondrial ribosomal protein L32) | DRSC14479 | 49780 | 67440 | inactive

The listing, from the first entry:
Target gene | amplicon | raw ATP luminescence, replicate 1 | raw ATP luminescence, replicate 2 | call
CG12909 | DRSC06224 | 38917 | 93000 | inactive
Ace (Acetylcholine esterase) | DRSC12959 | 1.47e5 | 1.39e5 | inactive
Ace (Acetylcholine esterase) | DRSC14100 | 44370 | 21127 | inactive
OXA1L (OXA1L mitochondrial inner membrane protein) | DRSC09672 | 39773 | 38637 | inactive
mRpL32 (mitochondrial ribosomal protein L32) | DRSC14479 | 49780 | 67440 | inactive
CR9337 (pseudo) | DRSC03212 | 70640 | 68553 | inactive
CG33332 | DRSC15504 | 75210 | 62410 | inactive
Gabat (gamma-aminobutyric acid transaminase) | DRSC10846 | 71483 | 54017 | inactive
Or45a (Odorant receptor 45a) | DRSC07487 | 50213 | 72187 | inactive
CG42758 | DRSC10021 | 65087 | 54423 | inactive
CG18636 | DRSC02685 | 74933 | 60043 | inactive
Jhbp6 (Juvenile hormone binding protein 6) | DRSC11714 | 58220 | 47650 | inactive
Nup93-2 (Nucleoporin 93kD-2) | DRSC16221 | 78853 | 32670 | inactive
Lint-O (L(3)mbt interactor in ovarian somatic cells) | DRSC18468 | 42420 | 49480 | inactive
CG13625 | DRSC14627 | 41337 | 38440 | inactive
CG5002 | DRSC06911 | 64640 | 56347 | inactive
CG14143 | DRSC10146 | 1.02e5 | 67193 | inactive
tim (timeless) | DRSC00841 | 96717 | 56700 | inactive
Cyp28c1 (Cytochrome P450 28c1) | DRSC20236 | 3.73e5 | 3.41e5 | inactive
Not1 | DRSC06787 | 30783 | 58017 | inactive
Not1 | DRSC06794 | 62813 | 73710 | inactive
CG6696 | DRSC20004 | 2.77e5 | 2.34e5 | inactive
Nt5a (5' nucleotidase A) | DRSC08561 | 69887 | 73837 | inactive
Ppr-Y | DRSC20892 | 2.35e5 | 2.23e5 | inactive
CG3222 | DRSC10355 | 83647 | 69127 | inactive
osk (oskar) | DRSC17023 | 54880 | 28627 | inactive
RpL30 (Ribosomal protein L30) | DRSC02087 | 42990 | 49920 | inactive
inaC (inactivation no afterpotential C) | DRSC07632 | 62537 | 69880 | inactive
AspRS (Aspartyl-tRNA synthetase) | DRSC05914 | 68853 | 67487 | inactive
CG15278 | DRSC02481 | 56237 | 50027 | inactive
Ir75c (Ionotropic receptor 75c) | DRSC10190 | 94703 | 63063 | inactive
CG31013 | DRSC16542 | 57400 | 40210 | inactive
CG13258 | DRSC02244 | 51273 | 79377 | inactive
Idi (Isopentenyl-diphosphate delta isomerase) | DRSC15918 | 43517 | 49157 | inactive
Gld (Glucose dehydrogenase) | DRSC12595 | 73133 | 61270 | inactive
Alp1 (Alkaline phosphatase 1) | DRSC11781 | 20767 | 24670 | inactive
MED26 (Mediator complex subunit 26) | DRSC17126 | 1.79e5 | 1.71e5 | inactive
MED26 (Mediator complex subunit 26) | DRSC17147 | 37750 | 41680 | inactive
Rgk3 (Rad, Gem/Kir family member 3) | DRSC04250 | 21233 | 32430 | inactive
Rgk3 (Rad, Gem/Kir family member 3) | DRSC04251 | 59120 | 59110 | inactive
Rgk3 (Rad, Gem/Kir family member 3) | DRSC04254 | 50943 | 49810 | inactive
Rgk3 (Rad, Gem/Kir family member 3) | DRSC04255 | 52403 | 53977 | inactive
CG12716 | DRSC19493 | 3.59e5 | 3.35e5 | inactive
CG33770 | DRSC11717 | 62803 | 42183 | inactive
TppII (Tripeptidyl-peptidase II) | DRSC07565 | 71617 | 55593 | inactive
bb8 (big bubble 8) | DRSC15578 | 74620 | 62300 | inactive
Ttd14 (TRPL translocation defect 14) | DRSC06632 | 58540 | 54420 | inactive
CG5246 | DRSC15751 | 84910 | 73120 | inactive
rictor (rapamycin-insensitive companion of Tor) | DRSC20071 | 3.25e5 | 3.16e5 | inactive
Cp7Fc (Chorion protein c at 7F) | DRSC18035 | 46870 | 40870 | inactive
CG33640 | DRSC01324 | 2.69e5 | 3.07e5 | inactive
cindr (CIN85 and CD2AP related) | DRSC14298 | 44310 | 31920 | inactive
CG5969 | DRSC11789 | 29727 | 17507 | inactive
CG7330 | DRSC10813 | 77257 | 1.17e5 | inactive
CG7330 | DRSC10814 | 93407 | 73327 | inactive
CG4716 | DRSC06884 | 85567 | 73907 | inactive
Ire1 (Inositol-requiring enzyme-1) | DRSC15606 | 90680 | 53970 | inactive
CG7194 | DRSC10784 | 61430 | 69910 | inactive
Kebab (Kinetochore and EB1 associated basic protein) | DRSC00827 | 1.12e5 | 82040 | inactive
Sirt1 (Sirtuin 1) | DRSC03435 | 66427 | 47320 | inactive
CG34224 | DRSC05269 | 1.12e5 | 1.12e5 | inactive
Ugt35B1 (UDP-glycosyltransferase family 35 member B1) | DRSC16893 | 51027 | 23970 | inactive
TMEM216 + CG11760 | DRSC14375 | 71443 | 36823 | inactive
CG5050 | DRSC02807 | 63290 | 72757 | inactive
CG10068 | DRSC12508 | 54447 | 18633 | inactive
CG5478 | DRSC15814 | 65690 | 70800 | inactive
ari-1 (ariadne 1) | DRSC20308 | 3.88e5 | 3.03e5 | inactive
CG13319 | DRSC06356 | 2.36e5 | 2.41e5 | inactive
Rpn5 (Regulatory particle non-ATPase 5) | DRSC12367 | 43147 | 37323 | inactive
Mabi (Mabiki) | DRSC02489 | 49337 | 48700 | inactive
CG5397 | DRSC00683 | 1.04e5 | 61873 | inactive
Dhc1 (Dynein heavy chain 1) | DRSC16503 | 60833 | 51333 | inactive
MED23 + CG3700 | DRSC04406 | 41800 | 42500 | inactive
MED23 + CG3700 | DRSC04407 | 69173 | 60257 | inactive
kermit | DRSC06074 | 68353 | 52963 | inactive
IP3K2 (Inositol 1,4,5-triphosphate kinase 2) | DRSC19500 | 3.60e5 | 3.39e5 | inactive
IP3K2 (Inositol 1,4,5-triphosphate kinase 2) | DRSC19747 | 3.69e5 | 3.74e5 | inactive
CG12682 | DRSC17873 | 56260 | 50740 | inactive
her (hermaphrodite) | DRSC03543 | 86783 | 52743 | inactive
Hmg-2 (High mobility group protein 2) | DRSC04554 | 62403 | 53500 | inactive
Ncc69 (sodium chloride cotransporter 69) | DRSC10412 | 34780 | 34340 | inactive
Ncc69 (sodium chloride cotransporter 69) | DRSC10413 | 62167 | 59660 | inactive
nompB (no mechanoreceptor potential B) | DRSC03701 | 34243 | 37713 | inactive
nompB (no mechanoreceptor potential B) | DRSC03731 | 48533 | 56613 | inactive
